Experimental data as given in patent US9657073B2, “Inhibitors of Bcl-2” (Case Western Reserve University, priority 2010, dated 2017).
At least one peptide structure holds a part that was inferred or is arguable (an end, a ring closure or a residue). Some results were stated once for a whole list of compounds, not compound by compound. Where no end group is shown, it is not given here.

How the values were obtained:
RS11846 cells = assay: Single cell digital imaging of intracellular Ca2+ (Fura-2); assay type: cell-based, human; conditions: 10 μM peptide, RS11846, FIG. 6
Method: (§1) WEHI7.2 cells were cultured in DMEM supplemented with 10% fetal calf serum, L-glutamine (2 mM), and nonessential amino acids (100 μM). Transfections of WEHI7.2 cells with expression vectors encoding wild type Bcl-2 and Bcl-2RS/GG were described previously. Jurkat cells and RS11846 cells were cultured in RPMI medium supplemented with 10% fetal bovine serum, L-glutamine (2 mM), and nonessential amino acids (100 μM). Cells were maintained in 5% carbon dioxide at high humidity.
(§2) Methods of Ca^2+ imaging, described in detail previously, were employed here with only minor modification. Briefly, cells adhered to poly-L-lysine-coated coverslips (35-mm coverslip dishes, MatTek Corp., Ashland, Mass.) were loaded with 1 μM Fura-2 AM for 45 min at 25° C. in extracellular buffer (ECB) (130 mM NaCl, 5 mM KCl, 1.5 mM CaCl2, 1 mM MgCl2, 25 mM Hepes, pH 7.5, 1 mg/ml BSA, and 5 mM glucose). The buffer was replaced with fresh ECB and the incubation continued for […] at 25° C. to permit de-esterification. Culture dishes were mounted on the non-heated stage of an inverted microscope (Olympus CKX41) equipped with a 20× Fluor objective. Excitation light was alternated between 340 and 380 nm by a filter wheel (Sutter Instrument Co.), with 0.8 sec and 0.2 sec exposure times respectively, and emitted light was filtered at >510 nm and collected with an intensified charge-coupled device camera (Cooke 12 bit VGA). The video signal was digitized using InCyt Im2 software (Intracellular Imaging) and subsequently processed using Microsoft Excel. To determine Rmin cells were perfused with ECB deficient in Ca^2+ and supplemented with 4 mM EGTA and 10 μM ionomycin. Rmax was obtained by perfusing cells with ECB supplemented with 4 mM CaCl2 and 10 μM ionomycin. […] In most experiments peptides were fused with the cell penetrating peptide of HIV TAT to facilitate uptake by cells. In some experiments peptides, without linkage to TAT, were delivered into cells using Chariot reagent (Active Motif) as previously described. Xestospongin C (Enzo Life Sciences International) and U73122 (Sigma), both dissolved in DMSO, were added to cells 30 mM prior to Ca^2+ measurements.

Jurkat cells = assay: as above; assay type: cell-based, human; conditions: 10 μM peptide, FIG. 4
Method: as §1, §2

[1] = test system: Bcl-2RS/GG-positive WEHI7.2 cells; assay: as above; assay type: cell-based, murine; conditions: Bcl-2RS/GG-positive cells
[2] = test system: Bcl-2-negative WEHI7.2 cells; assay: as above; assay type: cell-based, murine; conditions: Bcl-2-negative cells
[3] = test system: triple IP3R knockout DT40 cells; assay: as above; assay type: cell-based; conditions: 5 μM peptide, TKO DT40, FIG. 8C
Method: as §2, with “In some experiments peptides, without linkage to TAT, were delivered into cells using Chariot reagent (Active Motif) as previously described. Xestospongin C (Enzo Life Sciences International) and U73122 (Sigma), both dissolved in DMSO, were added to cells 30 mM prior to Ca^2+ measurements.” left out

wild type DT40 cells = assay: as above; assay type: cell-based; conditions: 5 μM peptide, DT40 expressing all three IP3R isoforms, FIG. 8B
Method: as §2, with “In some experiments peptides, without linkage to TAT, were delivered into cells using Chariot reagent (Active Motif) as previously described. Xestospongin C (Enzo Life Sciences International) and U73122 (Sigma), both dissolved in DMSO, were added to cells 30 mM prior to Ca^2+ measurements.” left out

primary CLL cells = assay: Apoptosis and cell death assays (trypan blue, propidium iodide, Hoechst nuclear morphology, Annexin V); assay type: cell-based, human; conditions: 10 μM peptide, 24 hr, Figs. 12-15
Description: Lymphocytes were freshly separated from heparinized peripheral blood obtained from normal adult volunteers or adult patients with chronic lymphocytic leukemia (CLL) meeting standard diagnostic guidelines. […] We conformed to all guidelines and regulations in accordance with Internal Review Board protocols ICC2902/11-02-28 (Case Western Reserve University Cancer Center/University Hospitals of Cleveland Ireland Cancer Center). Cells were separated by centrifugation through Ficoll-Hypaque and suspended in RPMI medium supplemented with 10% fetal bovine serum, L-glutamine (2 mM), and nonessential amino acids (100 μM) at a density of 2 million cells/ml. […]
Apoptosis was quantified according to apoptotic nuclear morphology and by detection of phosphatidylserine exposure on the plasma membrane. […] Membrane translocation of phosphatidylserine was detected by Annexin V staining. Annexin V-positive cells were assessed by flow cytometry using an ARIA flow cytometer (Beckman Coulter, Pasadena, Calif., USA). All flow cytometry data were analyzed using FlowJo 8.8.4 for Macintosh (Treestar, Ashland, Oreg., USA). […] Trypan blue dye uptake into cells was detected by light microscopy using a 40× objective and quantified by counting up to 400 cells. Propidium iodide uptake was quantified by flow cytometry in association with the Annexin V measurement described above.

Row | Substance | cells with Ca2+ oscillations (RS11846 cells) | cells with Ca2+ oscillations (Jurkat cells) | induction of Ca2+ oscillations compared with cells expressing wild type Bcl-2 [1] | induction of Ca2+ oscillations compared with cells expressing wild type Bcl-2 [2] | induction of Ca2+ oscillations compared with wild type DT40 [3] | induction of Ca2+ oscillations (wild type DT40 cells) | apoptosis induction in CLL cells (primary CLL cells)
1 | TAT-IDPDD/AA: TAT-IDP analogue; DD/AA substitution eliminates the predicted aspartyl protease cleavage site (RKKRRQRRRGGNVYTEIKCNSLLPLAAIVRV) | over 50% | over 50% | – | – | – | – | –
2 | RKKRRQRRRGGNVYTEIKCNSLLPLDDIVRV [TAT-IDP] | over 50% | over 50% | did not induce Ca^2+ oscillations to nearly the same degree | did not induce Ca^2+ oscillations to nearly the same degree | significantly less | induced Ca^2+ oscillations | neither TAT-Scr nor TAT-IDP induced apoptosis
